Laboratory results published in PubChem BioAssay AID1345085 (National Center for Advancing Translational Sciences (NCATS), 2018).
Inconclusive results, whose numbers are uncertain, are shown with a selection of clear calls. A potency beside an inconclusive call is a rough fit, not a confirmed value. Active and inactive are the calls of the source. The call rests on the fitted dose curve; in most records, active means well fitted cell-killing curve with a large enough effect; inconclusive means small, poorly fitted or top-dose-only effect, or effect the other way; inactive means no such curve, though single readings can be large or run the other way.

system: SKOV3; test: Confirmatory qHTS for gynecologic anti-cancer compounds from libraries of approved drugs and bioactive compounds; conditions: gynecologic cancer cell panel viability, ATPlite luminescence, 48 h; series mostly up to 57.6 µM; further: nearly all actives have a fitted effect of over 55% in size
Method in brief: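 IC50 values derive from an ATPlite ATP-content luminescence assay following 48 h treatment at 37 C. Each compound ran as an 11-concentration, threefold series (57.5 uM to 0.977 nM); HEK 293T served as control line for selectivity index.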
Potency means the concentration at half of the fitted maximal effect.

Row | SMILES | Potency
1 | O=c1[nH]c(=O)n([C@H]2C[C@H](O)[C@@H](CO)O2)cc1C(F)(F)F | inconclusive: 0.193 µM [rising, partial curve]
2 | C1CCC(C(CC2CCCCN2)C2CCCCC2)CC1 (stereo not given) | inconclusive: 48.5 µM [cytotoxic, partial curve, poor fit]
3 | CCc1nc(C(N)=O)c(Nc2ccc(N3CCC(N4CCN(C)CC4)CC3)c(OC)c2)nc1NC1CCOCC1 | inconclusive: 1.5 µM [cytotoxic, full curve]
4 | CCC(=O)N1CCN(c2ccc(-n3c(=O)ccc4cnc5ccc(-c6cnc7ccccc7c6)cc5c43)cc2C(F)(F)F)CC1 | active: 0.0044 µM
5 | CNc1nccc(-c2cccnc2Oc2cc(C(=O)Nc3cccc(C(F)(F)F)c3)ccc2C)n1 | inconclusive: 7.69 µM [cytotoxic, full curve, poor fit]
6 | COc1cc(-c2nn(C3CCC(N4CCN(C(C)=O)CC4)CC3)c3ncnc(N)c23)ccc1NC(=O)c1cc2ccccc2n1C (stereo not given) | inconclusive: 2.73 µM [rising, partial curve]
7 | Cc1cc(Nc2nc(N[C@@H](C)c3ncc(F)cn3)ncc2Cl)n[nH]1 | inactive
8 | COCCOc1ccc2c(c1)ncn2-c1ccc2cccc(N3CCC(N)CC3)c2n1 | inconclusive: 0.344 µM [rising, full curve]
9 | COc1cc2nccc(Oc3ccc(NC(=O)Nc4cc(C)on4)c(Cl)c3)c2cc1OC | inconclusive: 19.3 µM [cytotoxic, partial curve]
10 | O=c1cc(CN2CCOCC2)occ1OCCCCCSc1ccnc2cc(C(F)(F)F)ccc12 | inactive

Look-ups from the list:
Entry for O=c1[nH]c(=O)n([C@H]2C[C@H](O)[C@@H](CO)O2)cc1C(F)(F)F under Potency: inconclusive: 0.193 µM [rising, partial curve]
Entry for Cc1cc(Nc2nc(N[C@@H](C)c3ncc(F)cn3)ncc2Cl)n[nH]1 under Potency: inactive
